Data: patent US20250002534A1
These are yes or no findings as the source states them, for the method shown. Some entries that bind do so weakly or less than the wild type.

Amino acid sequences for entries named in this document (tags omitted).
UniProt O43813: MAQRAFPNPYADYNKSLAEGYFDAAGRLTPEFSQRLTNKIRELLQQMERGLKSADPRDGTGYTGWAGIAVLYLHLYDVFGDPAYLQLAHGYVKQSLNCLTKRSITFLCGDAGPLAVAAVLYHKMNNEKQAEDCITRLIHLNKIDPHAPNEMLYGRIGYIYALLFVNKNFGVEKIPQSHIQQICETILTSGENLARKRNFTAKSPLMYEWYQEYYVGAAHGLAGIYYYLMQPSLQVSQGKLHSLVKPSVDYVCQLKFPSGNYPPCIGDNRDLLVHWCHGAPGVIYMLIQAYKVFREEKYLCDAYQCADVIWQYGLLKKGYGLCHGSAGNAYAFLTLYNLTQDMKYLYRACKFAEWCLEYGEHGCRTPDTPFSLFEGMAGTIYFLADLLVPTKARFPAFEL

B1: peptide of SEQ ID NO:1, … (peptide)
peptide: YLRIVQCRSVEGSCGF
modifications: cyclised by a disulphide bond between the two cysteine residues
B2: cyclized peptide of SEQ ID NO:38, … (peptide)
peptide: CQEQLERALNSSC
modifications: cyclized by a disulphide bond between the two cysteine residues
B3: cyclized peptide of SEQ ID NO:40, CRALNSSC (peptide)
peptide: CRALNSSC
modifications: cyclised by a disulphide bond between the two cysteine residues

Target: recombinant LanCL1 (Lanthionine synthetase C-like protein 1) (UniProt O43813)
Assay: photoprobe displacement from rLanCL1, in-gel fluorescence

Row | binding | Binder
1 | binds | B1
2 | binds | B2
3 | binds | B3
